From article PMC13133936
These are yes or no findings as the source states them, for the method shown. Some results given as binding are weak or reduced against the parent protein; the word gives no strength.

Chains of the proteins cited; added tags and fusions are not shown.
UniProt Q9HYV0: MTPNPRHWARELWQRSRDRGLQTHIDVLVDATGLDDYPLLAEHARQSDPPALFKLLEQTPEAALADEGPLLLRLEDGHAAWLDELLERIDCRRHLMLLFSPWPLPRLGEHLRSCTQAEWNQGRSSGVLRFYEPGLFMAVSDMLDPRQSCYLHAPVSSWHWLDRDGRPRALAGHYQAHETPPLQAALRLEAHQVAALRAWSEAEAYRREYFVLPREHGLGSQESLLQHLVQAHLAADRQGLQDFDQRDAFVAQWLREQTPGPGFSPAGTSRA

Target: Tla1 (PA3293), type VI lipase adapter protein, bacterial two-hybrid fusion (Pseudomonas aeruginosa (PAO1)) (UniProt Q9HYV0)
Assay: two-hybrid; bacterial adenylate cyclase two-hybrid (BACTH): proteins or domains fused to the T18 or T25 domain of B. pertussis adenylate cyclase, coproduced in E. coli BTH101, spotted on X-gal indicator plates; blue colony reflects interaction; triplicate

Tla1 (PA3293), type VI lipase adapter protein, bacterial two-hybrid fusion (from UniProt Q9HYV0 1-271)
binding: binds
